No constants are given. Whether binding was seen depends on the method and setting. In cells and extracts the contact can be indirect. Some binding calls cover weakened binding; strength is not graded here.
How the values were obtained:
[1] = target: NRL, endogenous in mouse retina (mouse (endogenous in mouse retina)) (UniProt P54846); assay: proximity ligation; Duolink PLA on sections of adult mouse retina with anti-NRL and anti-DHX9 or anti-DDX5 antibodies; Nrl KO retina as control
[2] = target: DHX9, HEK293 cells (human (endogenous in HEK293)) (UniProt Q08211); assay: co-IP; HEK293 cells overexpressing NRL, lysed in 40 mM Tris-HCl pH 8.0, 150 mM NaCl, 2 mM EDTA, 0.2% NP-40; lysates treated 30 min at 37°C with RNaseOUT (control), RNase A, RNase H or DNase I; IP with NRL, DHX9 or DDX5 antibody on Dynabeads Protein A overnight at 4°C; immunoblot
[3] = target: human NRL fused to GST (human) (UniProt P54845); assay: pull-down; GST-NRL on Glutathione Sepharose beads incubated 2 hr at 4°C with nuclear fraction from bovine retina, without benzonase; washed in PBS with 1% Triton X-100; immunoblot; purified GST as control; only the target purified
[4] = target: NRL, endogenous in bovine retina (bovine (endogenous in bovine retina)) (UniProt F1N4J1); assay: co-IP; nuclear fraction of bovine retina in co-IP binding buffer, sonicated; lysates treated 30 min at 37°C with RNaseOUT (control), RNase A, RNase H or DNase I; IP with NRL, DHX9 or DDX5 antibody on Dynabeads Protein A overnight at 4°C; immunoblot
[5] = target: human NRL fused to GST (human) (UniProt P54845); assay: pull-down; GST-NRL on Glutathione Sepharose beads incubated 2 hr at 4°C with nuclear fraction from bovine retina with 25 U of benzonase (digests all nucleic acids); immunoblot; only the target purified
[6] = target: DHX9, bovine retina (bovine (endogenous in bovine retina)) (UniProt Q28141); assay: co-IP; nuclear fraction of bovine retina in co-IP binding buffer, sonicated; lysates treated 30 min at 37°C with RNaseOUT (control), RNase A, RNase H or DNase I; IP with NRL, DHX9 or DDX5 antibody on Dynabeads Protein A overnight at 4°C; immunoblot

Protein sequences, listed by entry. Tags and fused reporters are not part of them.
UniProt P54846: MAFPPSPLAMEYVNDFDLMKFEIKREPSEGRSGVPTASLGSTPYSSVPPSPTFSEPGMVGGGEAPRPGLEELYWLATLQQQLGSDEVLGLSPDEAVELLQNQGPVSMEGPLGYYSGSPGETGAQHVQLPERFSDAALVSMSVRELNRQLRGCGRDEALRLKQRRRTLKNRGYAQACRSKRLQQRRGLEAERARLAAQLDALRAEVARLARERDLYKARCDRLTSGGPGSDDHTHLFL
UniProt Q08211: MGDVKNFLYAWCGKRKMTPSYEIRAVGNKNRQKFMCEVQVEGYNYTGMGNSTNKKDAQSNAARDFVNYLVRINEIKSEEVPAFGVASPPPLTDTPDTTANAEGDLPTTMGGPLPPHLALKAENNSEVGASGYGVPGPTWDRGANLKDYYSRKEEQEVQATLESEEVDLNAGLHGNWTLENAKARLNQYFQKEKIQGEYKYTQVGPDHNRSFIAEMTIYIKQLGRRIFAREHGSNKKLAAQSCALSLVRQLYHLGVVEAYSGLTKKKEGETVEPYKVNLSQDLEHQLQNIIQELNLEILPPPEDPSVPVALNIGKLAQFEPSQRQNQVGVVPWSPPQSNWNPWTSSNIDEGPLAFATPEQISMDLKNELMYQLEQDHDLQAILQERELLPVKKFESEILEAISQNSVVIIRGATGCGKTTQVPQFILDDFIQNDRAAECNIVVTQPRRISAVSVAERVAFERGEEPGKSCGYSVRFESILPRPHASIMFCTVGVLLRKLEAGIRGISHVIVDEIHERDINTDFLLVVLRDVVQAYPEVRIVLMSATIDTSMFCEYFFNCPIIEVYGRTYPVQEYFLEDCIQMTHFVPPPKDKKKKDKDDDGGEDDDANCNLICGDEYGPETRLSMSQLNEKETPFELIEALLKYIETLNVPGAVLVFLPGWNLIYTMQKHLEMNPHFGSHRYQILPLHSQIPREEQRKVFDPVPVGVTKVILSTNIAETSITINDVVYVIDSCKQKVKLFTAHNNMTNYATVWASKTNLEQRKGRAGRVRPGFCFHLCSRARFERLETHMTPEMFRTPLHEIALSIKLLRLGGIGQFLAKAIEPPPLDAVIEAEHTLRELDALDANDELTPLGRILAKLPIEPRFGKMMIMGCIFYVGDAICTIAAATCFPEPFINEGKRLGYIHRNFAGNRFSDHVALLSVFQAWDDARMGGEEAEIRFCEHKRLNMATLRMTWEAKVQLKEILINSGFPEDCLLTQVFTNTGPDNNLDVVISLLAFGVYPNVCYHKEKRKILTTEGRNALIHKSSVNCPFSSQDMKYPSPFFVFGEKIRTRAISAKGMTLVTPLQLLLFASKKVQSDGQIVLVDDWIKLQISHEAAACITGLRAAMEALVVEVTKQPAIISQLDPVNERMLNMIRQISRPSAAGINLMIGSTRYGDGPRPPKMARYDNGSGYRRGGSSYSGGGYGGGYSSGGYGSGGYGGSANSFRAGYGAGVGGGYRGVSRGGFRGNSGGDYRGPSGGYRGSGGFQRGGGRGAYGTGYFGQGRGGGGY
UniProt P54845: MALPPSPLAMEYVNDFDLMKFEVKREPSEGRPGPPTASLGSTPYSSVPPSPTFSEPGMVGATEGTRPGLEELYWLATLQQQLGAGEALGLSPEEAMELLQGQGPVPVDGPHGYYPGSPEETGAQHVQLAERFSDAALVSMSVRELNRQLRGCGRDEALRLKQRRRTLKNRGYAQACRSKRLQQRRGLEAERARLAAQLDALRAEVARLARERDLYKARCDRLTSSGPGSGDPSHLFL
UniProt F1N4J1: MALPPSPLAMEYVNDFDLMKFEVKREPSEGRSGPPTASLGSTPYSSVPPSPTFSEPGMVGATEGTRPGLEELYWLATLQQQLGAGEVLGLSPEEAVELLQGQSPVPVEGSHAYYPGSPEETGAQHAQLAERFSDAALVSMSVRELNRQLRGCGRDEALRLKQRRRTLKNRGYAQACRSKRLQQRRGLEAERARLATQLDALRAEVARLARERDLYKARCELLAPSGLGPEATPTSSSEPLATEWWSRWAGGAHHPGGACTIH
UniProt Q28141: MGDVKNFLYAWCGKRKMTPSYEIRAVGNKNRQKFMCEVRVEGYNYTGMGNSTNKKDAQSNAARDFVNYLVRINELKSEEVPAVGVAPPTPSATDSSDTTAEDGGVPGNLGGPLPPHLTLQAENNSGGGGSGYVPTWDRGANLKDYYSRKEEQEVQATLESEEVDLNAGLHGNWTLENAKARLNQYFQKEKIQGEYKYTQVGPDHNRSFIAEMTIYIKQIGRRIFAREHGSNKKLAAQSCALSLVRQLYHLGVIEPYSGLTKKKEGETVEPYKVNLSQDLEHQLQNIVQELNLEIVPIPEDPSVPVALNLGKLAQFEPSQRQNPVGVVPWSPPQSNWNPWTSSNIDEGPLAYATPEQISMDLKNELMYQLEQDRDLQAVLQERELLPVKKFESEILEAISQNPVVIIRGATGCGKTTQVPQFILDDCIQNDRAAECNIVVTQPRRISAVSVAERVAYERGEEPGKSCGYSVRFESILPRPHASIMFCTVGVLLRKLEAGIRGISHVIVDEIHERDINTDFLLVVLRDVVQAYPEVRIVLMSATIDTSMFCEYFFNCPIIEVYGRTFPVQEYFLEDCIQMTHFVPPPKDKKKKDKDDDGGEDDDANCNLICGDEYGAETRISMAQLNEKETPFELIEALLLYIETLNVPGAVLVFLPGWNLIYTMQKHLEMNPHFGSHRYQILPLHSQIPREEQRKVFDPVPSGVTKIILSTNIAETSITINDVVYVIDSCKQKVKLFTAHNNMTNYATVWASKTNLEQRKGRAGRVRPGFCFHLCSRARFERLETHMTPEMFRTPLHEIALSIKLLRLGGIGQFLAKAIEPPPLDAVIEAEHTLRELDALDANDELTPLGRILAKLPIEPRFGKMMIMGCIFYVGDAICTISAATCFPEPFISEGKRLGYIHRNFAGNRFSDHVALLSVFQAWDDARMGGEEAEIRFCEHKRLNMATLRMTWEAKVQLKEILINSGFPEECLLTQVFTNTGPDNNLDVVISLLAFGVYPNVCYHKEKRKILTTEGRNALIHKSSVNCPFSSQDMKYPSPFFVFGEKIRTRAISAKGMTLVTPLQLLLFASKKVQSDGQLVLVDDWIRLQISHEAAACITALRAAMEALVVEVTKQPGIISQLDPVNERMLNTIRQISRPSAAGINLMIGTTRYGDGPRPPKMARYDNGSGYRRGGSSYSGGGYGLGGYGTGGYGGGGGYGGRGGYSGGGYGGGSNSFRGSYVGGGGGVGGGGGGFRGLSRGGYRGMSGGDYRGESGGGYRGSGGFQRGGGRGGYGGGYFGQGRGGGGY
UniProt O70133: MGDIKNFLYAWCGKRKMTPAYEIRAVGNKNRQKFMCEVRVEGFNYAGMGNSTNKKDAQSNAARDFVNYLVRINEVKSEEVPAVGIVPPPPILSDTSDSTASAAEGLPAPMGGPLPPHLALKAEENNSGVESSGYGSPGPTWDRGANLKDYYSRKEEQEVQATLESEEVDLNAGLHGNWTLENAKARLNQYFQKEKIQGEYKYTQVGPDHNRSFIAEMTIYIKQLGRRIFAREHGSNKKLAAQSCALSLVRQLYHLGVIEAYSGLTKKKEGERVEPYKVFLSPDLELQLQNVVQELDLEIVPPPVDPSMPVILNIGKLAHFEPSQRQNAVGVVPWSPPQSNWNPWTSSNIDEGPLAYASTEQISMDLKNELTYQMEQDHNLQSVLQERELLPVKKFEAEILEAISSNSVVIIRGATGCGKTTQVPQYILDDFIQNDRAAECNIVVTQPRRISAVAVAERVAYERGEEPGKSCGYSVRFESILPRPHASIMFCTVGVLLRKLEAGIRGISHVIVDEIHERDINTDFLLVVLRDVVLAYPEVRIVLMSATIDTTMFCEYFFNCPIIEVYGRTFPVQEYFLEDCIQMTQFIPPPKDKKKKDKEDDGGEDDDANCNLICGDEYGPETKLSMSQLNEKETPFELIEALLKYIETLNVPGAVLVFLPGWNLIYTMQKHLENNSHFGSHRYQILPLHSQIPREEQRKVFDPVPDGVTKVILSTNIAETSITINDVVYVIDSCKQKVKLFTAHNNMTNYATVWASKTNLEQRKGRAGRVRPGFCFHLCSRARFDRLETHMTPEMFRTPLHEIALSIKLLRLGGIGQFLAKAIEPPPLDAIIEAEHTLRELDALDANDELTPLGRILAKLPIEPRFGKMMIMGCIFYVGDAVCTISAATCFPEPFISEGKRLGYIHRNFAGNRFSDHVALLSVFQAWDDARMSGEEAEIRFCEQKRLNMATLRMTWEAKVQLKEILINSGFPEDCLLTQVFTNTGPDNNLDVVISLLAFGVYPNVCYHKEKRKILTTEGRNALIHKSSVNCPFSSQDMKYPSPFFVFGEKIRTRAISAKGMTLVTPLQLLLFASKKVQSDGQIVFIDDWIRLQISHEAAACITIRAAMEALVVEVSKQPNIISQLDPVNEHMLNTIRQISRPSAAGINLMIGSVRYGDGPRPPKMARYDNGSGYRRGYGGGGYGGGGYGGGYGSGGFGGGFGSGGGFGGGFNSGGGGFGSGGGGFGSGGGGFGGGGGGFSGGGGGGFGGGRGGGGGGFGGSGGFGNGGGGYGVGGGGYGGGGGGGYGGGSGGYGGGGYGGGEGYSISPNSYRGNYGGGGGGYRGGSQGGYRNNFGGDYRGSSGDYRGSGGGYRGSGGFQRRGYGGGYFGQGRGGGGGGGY
UniProt P17844: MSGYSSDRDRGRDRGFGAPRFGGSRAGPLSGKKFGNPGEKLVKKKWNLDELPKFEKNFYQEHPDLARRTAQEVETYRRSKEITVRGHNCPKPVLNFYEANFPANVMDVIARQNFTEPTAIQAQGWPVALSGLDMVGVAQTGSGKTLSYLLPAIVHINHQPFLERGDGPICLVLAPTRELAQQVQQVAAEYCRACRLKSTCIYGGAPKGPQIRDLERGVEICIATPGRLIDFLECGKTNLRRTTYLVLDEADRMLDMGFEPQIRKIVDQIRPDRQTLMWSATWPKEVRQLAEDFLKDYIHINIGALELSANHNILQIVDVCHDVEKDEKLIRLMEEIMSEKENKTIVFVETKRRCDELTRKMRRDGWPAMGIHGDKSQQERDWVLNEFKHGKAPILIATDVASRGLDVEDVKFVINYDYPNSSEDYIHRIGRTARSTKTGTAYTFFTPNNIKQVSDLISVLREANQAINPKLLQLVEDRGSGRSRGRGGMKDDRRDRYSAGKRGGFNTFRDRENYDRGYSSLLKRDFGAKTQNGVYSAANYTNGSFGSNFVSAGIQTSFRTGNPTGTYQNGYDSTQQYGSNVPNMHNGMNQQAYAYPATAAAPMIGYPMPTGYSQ
UniProt A0A3Q1M155: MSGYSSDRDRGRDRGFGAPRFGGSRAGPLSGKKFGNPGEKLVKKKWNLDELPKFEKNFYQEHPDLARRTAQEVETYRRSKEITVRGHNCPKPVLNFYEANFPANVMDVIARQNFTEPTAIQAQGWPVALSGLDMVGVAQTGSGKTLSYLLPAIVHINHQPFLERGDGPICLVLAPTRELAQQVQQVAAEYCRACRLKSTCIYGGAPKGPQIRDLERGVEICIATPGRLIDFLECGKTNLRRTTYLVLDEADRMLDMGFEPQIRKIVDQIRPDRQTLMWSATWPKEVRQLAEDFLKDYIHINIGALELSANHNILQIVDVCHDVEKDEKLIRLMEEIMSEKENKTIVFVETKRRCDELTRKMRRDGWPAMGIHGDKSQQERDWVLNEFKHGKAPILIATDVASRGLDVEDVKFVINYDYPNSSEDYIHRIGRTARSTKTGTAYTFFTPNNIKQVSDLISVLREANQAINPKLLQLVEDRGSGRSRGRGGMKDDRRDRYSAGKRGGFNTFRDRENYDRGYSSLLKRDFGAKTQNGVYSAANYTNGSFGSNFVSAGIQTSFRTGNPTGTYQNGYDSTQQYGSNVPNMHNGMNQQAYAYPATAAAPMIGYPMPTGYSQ

Substance	binding [2]	binding [4]	binding [6]	further results
DHX9, mouse retina (from UniProt O70133 1-1380)	–	–	–	binding [1]: binds
DDX5, HEK293 cells (from UniProt P17844 1-614)	binds	–	–	–
DHX9, bovine retina (from UniProt Q28141 1-1287)	–	binds	–	binding [3]: binds; binding [5]: binds
DDX5, bovine retina (from UniProt A0A3Q1M155 1-614)	–	binds	binds	–
NRL, endogenous in bovine retina (from UniProt F1N4J1 1-262)	–	–	binds	–
Xpress-tagged human NRL (from UniProt P54845 1-237)	binds	–	–	–
